We go through two molecules from PMC4685312.

By UniProt entry, the sequences of proteins in these tests, tags left out.
UniProt Q6W2J9: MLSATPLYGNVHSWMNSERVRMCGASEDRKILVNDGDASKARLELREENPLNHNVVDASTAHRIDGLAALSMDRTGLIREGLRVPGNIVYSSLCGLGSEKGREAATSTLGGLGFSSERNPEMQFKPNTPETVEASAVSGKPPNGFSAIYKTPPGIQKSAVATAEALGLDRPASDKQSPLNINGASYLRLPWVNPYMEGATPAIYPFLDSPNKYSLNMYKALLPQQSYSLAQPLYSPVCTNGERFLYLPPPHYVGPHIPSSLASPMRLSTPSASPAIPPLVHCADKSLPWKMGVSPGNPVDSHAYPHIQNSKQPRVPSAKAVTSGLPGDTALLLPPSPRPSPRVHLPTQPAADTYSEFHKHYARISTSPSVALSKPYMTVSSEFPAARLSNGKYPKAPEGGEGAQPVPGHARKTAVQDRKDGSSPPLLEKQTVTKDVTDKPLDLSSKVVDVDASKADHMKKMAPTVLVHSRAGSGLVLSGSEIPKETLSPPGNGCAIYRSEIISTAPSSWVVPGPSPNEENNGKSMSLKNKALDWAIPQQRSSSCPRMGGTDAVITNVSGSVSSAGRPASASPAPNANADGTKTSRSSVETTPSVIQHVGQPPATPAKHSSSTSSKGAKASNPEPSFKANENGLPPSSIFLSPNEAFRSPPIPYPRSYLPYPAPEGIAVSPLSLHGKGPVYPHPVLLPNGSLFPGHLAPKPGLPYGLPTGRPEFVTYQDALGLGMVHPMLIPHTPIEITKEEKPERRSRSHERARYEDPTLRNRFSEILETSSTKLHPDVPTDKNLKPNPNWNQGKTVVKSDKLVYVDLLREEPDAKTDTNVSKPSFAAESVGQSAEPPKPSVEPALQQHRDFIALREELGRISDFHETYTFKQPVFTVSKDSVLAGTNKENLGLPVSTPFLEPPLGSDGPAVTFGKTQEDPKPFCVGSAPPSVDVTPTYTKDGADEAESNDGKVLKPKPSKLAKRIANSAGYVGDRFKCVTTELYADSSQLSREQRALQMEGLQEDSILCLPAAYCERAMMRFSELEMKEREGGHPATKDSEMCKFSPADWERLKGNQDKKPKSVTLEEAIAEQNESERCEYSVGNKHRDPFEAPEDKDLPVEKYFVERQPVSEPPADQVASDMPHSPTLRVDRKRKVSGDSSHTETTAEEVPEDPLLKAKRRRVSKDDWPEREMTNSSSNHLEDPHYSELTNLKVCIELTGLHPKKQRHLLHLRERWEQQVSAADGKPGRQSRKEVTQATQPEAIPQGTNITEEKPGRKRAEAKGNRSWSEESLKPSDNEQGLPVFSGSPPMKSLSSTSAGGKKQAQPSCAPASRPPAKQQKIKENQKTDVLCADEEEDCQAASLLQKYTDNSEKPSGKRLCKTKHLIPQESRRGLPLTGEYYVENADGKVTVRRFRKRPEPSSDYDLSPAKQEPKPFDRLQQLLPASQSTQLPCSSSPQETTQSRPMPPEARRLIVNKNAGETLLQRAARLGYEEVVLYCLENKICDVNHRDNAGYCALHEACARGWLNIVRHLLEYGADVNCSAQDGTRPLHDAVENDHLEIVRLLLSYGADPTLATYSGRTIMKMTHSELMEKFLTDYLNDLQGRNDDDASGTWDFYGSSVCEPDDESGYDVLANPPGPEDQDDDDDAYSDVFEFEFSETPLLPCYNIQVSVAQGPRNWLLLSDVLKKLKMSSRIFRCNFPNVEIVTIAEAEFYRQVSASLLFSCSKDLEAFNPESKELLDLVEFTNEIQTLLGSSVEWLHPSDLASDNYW
UniProt Q9BSM1: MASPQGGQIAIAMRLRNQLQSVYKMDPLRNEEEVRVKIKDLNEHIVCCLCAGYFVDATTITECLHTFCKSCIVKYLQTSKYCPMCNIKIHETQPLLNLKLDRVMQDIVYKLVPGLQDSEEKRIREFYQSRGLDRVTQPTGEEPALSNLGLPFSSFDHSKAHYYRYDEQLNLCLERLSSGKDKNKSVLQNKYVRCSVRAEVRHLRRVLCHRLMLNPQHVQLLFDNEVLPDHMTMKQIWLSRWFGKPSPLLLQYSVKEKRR
UniProt Q9H9S0: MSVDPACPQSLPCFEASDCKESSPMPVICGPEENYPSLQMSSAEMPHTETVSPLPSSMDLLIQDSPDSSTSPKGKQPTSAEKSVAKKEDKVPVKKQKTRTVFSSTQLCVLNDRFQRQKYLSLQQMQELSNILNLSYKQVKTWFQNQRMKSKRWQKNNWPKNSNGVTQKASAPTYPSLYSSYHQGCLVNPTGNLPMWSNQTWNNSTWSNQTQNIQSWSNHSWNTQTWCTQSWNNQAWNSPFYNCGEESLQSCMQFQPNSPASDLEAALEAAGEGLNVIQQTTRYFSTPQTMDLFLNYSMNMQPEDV
UniProt Q01860: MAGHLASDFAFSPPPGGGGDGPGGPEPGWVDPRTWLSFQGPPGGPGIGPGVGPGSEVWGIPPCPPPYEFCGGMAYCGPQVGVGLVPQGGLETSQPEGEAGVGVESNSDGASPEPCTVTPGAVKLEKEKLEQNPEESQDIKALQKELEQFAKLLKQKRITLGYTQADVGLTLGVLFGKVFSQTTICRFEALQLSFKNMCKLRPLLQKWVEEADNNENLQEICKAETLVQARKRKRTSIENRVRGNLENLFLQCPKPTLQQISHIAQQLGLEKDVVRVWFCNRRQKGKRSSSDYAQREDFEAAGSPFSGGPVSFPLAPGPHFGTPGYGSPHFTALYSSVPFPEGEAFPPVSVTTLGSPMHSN

No constants are given. Whether binding was seen depends on the method and setting. Binding seen in cells or lysates may run through a third protein. Here binding means that the protein was enriched with, or labelled near, the bait; the list need not be complete. For some of these results: No binding means not detected with the bait.

What all share (assay): affinity purification with mass spectrometry; endogenous immunoprecipitation (antibodies to PCGF1, BCOR, DPPA4, NANOG or OCT4) from nuclear lysate of undifferentiated NT2 cells, trypsin digest on beads, label-free mass spectrometry (Q Exactive), volcano plot against IgG beads
The target in assay [1] is BCOR (human (endogenous in NT2)) (UniProt Q6W2J9).
Assay [2] has as its target PCGF1 (human (endogenous in NT2)) (UniProt Q9BSM1).
The target in assay [3] is NANOG (human (endogenous in NT2)) (UniProt Q9H9S0).
Assay [4] has as its target OCT4 (human (endogenous in NT2)) (UniProt Q01860).
The target in assay [5] is T1, DPPA4 (human (endogenous in NT2)) (UniProt Q7L190).
T1 sequence: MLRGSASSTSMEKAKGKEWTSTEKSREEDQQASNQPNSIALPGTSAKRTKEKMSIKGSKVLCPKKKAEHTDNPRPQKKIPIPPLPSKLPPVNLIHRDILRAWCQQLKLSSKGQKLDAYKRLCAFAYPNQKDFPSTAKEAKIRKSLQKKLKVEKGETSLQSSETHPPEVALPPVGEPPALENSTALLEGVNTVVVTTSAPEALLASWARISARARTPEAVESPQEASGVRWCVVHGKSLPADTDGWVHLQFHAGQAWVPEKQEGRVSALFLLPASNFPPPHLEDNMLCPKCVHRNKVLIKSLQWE

Assay [6] concerns the target NANOG (human (endogenous in NT2)), Q9H9S0. To be noted: remark: other sources report otherwise.
The target in assay [7] is OCT4 (human (endogenous in NT2)), Q01860. The following applies: remark: other sources report otherwise.

B1: KDM2B (protein, UniProt Q8NHM5 1-1336)
chain: MAGPQMGGSAEDHPPRKRHAAEKQKKKTVIYTKCFEFESATQRPIDRQRYDENEDLSDVEEIVSVRGFSLEEKLRSQLYQGDFVHAMEGKDFNYEYVQREALRVPLIFREKDGLGIKMPDPDFTVRDVKLLVGSRRLVDVMDVNTQKGTEMSMSQFVRYYETPEAQRDKLYNVISLEFSHTKLEHLVKRPTVVDLVDWVDNMWPQHLKEKQTEATNAIAEMKYPKVKKYCLMSVKGCFTDFHIDFGGTSVWYHVFRGGKIFWLIPPTLHNLALYEEWVLSGKQSDIFLGDRVERCQRIELKQGYTFFIPSGWIHAVYTPVDSLVFGGNILHSFNVPMQLRIYEIEDRTRVQPKFRYPFYYEMCWYVLERYVYCVTQRSHLTQEYQRESMLIDAPRKPSIDGFSSDSWLEMEEEACDQQPQEEEEKDEEGEGRDRAPKPPTDGSTSPTSTPSEDQEALGKKPKAPALRFLKRTLSNESEESVKSTTLAVDYPKTPTGSPATEVSAKWTHLTEFELKGLKALVEKLESLPENKKCVPEGIEDPQALLEGVKNVLKEHADDDPSLAITGVPVVTWPKKTPKNRAVGRPKGKLGPASAVKLAANRTTAGARRRRTRCRKCEACLRTECGECHFCKDMKKFGGPGRMKQSCIMRQCIAPVLPHTAVCLVCGEAGKEDTVEEEEGKFNLMLMECSICNEIIHPGCLKIKESEGVVNDELPNCWECPKCNHAGKTGKQKRGPGFKYASNLPGSLLKEQKMNRDNKEGQEPAKRRSECEEAPRRRSDEHSKKVPPDGLLRRKSDDVHLRKKRKYEKPQELSGRKRASSLQTSPGSSSHLSPRPPLGSSLSPWWRSSLTYFQQQLKPGKEDKLFRKKRRSWKNAEDRMALANKPLRRFKQEPEDELPEAPPKTRESDHSRSSSPTAGPSTEGAEGPEEKKKVKMRRKRRLPNKELSRELSKELNHEIQRTENSLANENQQPIKSEPESEGEEPKRPPGICERPHRFSKGLNGTPRELRHQLGPSLRSPPRVISRPPPSVSPPKCIQMERHVIRPPPISPPPDSLPLDDGAAHVMHREVWMAVFSYLSHQDLCVCMRVCRTWNRWCCDKRLWTRIDLNHCKSITPLMLSGIIRRQPVSLDLSWTNISKKQLSWLINRLPGLRDLVLSGCSWIAVSALCSSSCPLLRTLDVQWVEGLKDAQMRDLLSPPTDNRPGQMDNRSKLRNIVELRLAGLDITDASLRLIIRHMPLLSKLHLSYCNHVTDQSINLLTAVGTTTRDSLTEINLSDCNKVTDQCLSFFKRCGNICHIDLRYCKQVTKEGCEQFIAEMSVSVQFGQVEEKLLQKLS
With B1, the binding result is recorded as “binds” in assay [1]; “binds” in assay [2]; “binds” in assay [3]; “no binding” in assay [4]; “no binding” in assay [5].

B2: RNF2, Q99496 1-336 (protein)
chain: MSQAVQTNGTQPLSKTWELSLYELQRTPQEAITDGLEIVVSPRSLHSELMCPICLDMLKNTMTTKECLHRFCADCIITALRSGNKECPTCRKKLVSKRSLRPDPNFDALISKIYPSRDEYEAHQERVLARINKHNNQQALSHSIEEGLKIQAMNRLQRGKKQQIENGSGAEDNGDSSHCSNASTHSNQEAGPSNKRTKTSDDSGLELDNNNAAMAIDPVMDGASEIELVFRPHPTLMEKDDSAQTRYIKTSGNATVDHLSKYLAVRLALEELRSKGESNQMNLDTASEKQYTIYIATASGQFTVLNGSFSLELVSEKYWKVNKPMELYYAPTKEHK
Consider B2, for which the values for the binding result in assay [6] and in assay [7] were “binds” and “no binding”, respectively.
